Literature values, collected in patent US11447522B2, “Potent soft anti-inflammatory corticosteroid compounds and uses thereof” (Bodor Laboratories, Inc., priority 2017, dated 2022).
At least one structure is not confirmed: it was looked up by name or label, or the drawing left a doubt.

System: TNF-α production
Details: cited from earlier work

CCCC1O[C@@H]2C[C@H]3[C@@H]4CCC5=CC(=O)C=C[C@]5(C)[C@H]4[C@@H](O)C[C@]3(C)[C@]2(C(=O)CO)O1 (stereo partly shown) [budesonide]
activity during incubation under the same conditions: maintain full activity
